The source of these data is article PMC12040169 (PLOS Biology, 2025).

This is one part of the list.

The subject of this experiment is T1, CTL2-GFP (C. trachomatis L2/434/Bu, GFP-expressing).
T1 construct: L2/434/Bu, GFP-expressing
Also noted: species or system HeLa; Intracellular C. trachomatis growth in HeLa cells, bulk GFP fluorescence relative to DMSO. To be noted: bulk GFP, single well; 28.5 h, 10 µM; inhibitor.
`O=c1[nH]c(=S)[nH]c2c1CCC2` [CBK113252]: the “% of control remaining” value was found to be 127.059%.
`CCS(=O)(=O)N1CCN(S(=O)(=O)c2ccccc2[N+](=O)[O-])CC1` [CBK264289]: the “% of control remaining” value turned out to be 137.16%.
As for `Cc1cc(NS(=O)(=O)c2cccc3cccnc23)n(C)n1` [CBK067242], the figure is 107.849%; as for `O=C1CC(c2ccccc2O)CC2=C1C=Nc1ccccc1N2` (stereo not shown) [CBK270287], 126.312%.
Turning to `CN1CCC2(CC1)OCc1cc(-c3cccnc3)ccc1O2` [CBK061020], the “% of control remaining” value is 97.9207%.
As to `O=C1NC2(CCCCC2)C(=O)N1c1ccc(F)cc1F` [CBK281945], the “% of control remaining” value amounted to 119.329%.
With `CS(=O)(=O)N1CCN(c2ccc(NC(=O)COc3ccc4ccccc4c3)cc2)CC1` [CBK266450], the “% of control remaining” value was determined as 144.968%.
As for `O=C(CCCOc1ccc(Cl)cc1Cl)Nc1ccc(O)cc1C(=O)O` [CBK131688], the “% of control remaining” value is recorded as 133.072%.
In the case of `Oc1ccc(-c2cncc(Nc3ccc(Br)c(Cl)c3)n2)cc1` [CBK107806], the “% of control remaining” value is given as 84.1175%.
As for `O=C(CN1C(=O)c2ccccc2C1=O)Nc1cccc(-c2cnc3ccccc3n2)c1` [CBK268614], the figure is 70.1217%; as for `COc1cccc(CC(=O)N2[C@H](Cc3ccccc3)C[C@@H]3NCCCCC[C@H]32)c1` [CBK286030], 123.654%; as for `O=C(NCCN1CCCC1)c1ccc(Nc2cncc(-c3ccc(O)cc3)n2)c(Cl)c1` [CBK122666], 116.524%.
For the compound `COC(=O)c1ccccc1NC(=O)CNS(=O)(=O)c1c(C)cc(C)cc1C` [CBK265974], the “% of control remaining” value amounted to 103.788%.
As for `COc1cc(C(=O)Nc2nc(Cc3n[nH]c(=S)n3C)cs2)ccc1C` [CBK296683], the figure is 146.22%; as for `Cc1nc2c(c(N3CCN(c4ccc(O)cc4)CC3)n1)CN(Cc1ccccc1)CC2` [CBK286177], 149.875%.
As for `CCOC(=O)N1CCN(C2CCCN(Cc3c(C)nn(C)c3Cl)C2)CC1` (stereo not shown) [CBK306853], the figure is 107.223%.
For the compound `Oc1ccc(/C=N/Nc2nnn[nH]2)c(O)c1` [CBK260972], the “% of control remaining” value amounted to 100%.
As for `O=C(CCCc1ccccc1)Nc1scc2c(=O)oc3ccccc3c12` [CBK265435], the figure is 100%; as for `Cc1cc(C)c2c(N)nc(N)nc2n1` [CBK025968], 113.378%.
As for `O=C(CCCn1cccn1)N1CCOC(c2ccc(Cl)cc2)C1` (stereo not shown) [CBK304643], the figure is 125.229%.
With `C=CCNC(=O)N1CCC2(CC1)OCCc1c2n(C)c2ccccc12` [CBK047354], the “% of control remaining” value was 126.142%.
As for `O=C(c1cccs1)N1Cc2ccccc2OC2(CCOCC2)C1` [CBK284942], the figure is 113.471%; as for `Cc1cc2ncc3c(n2n1)CC1CCC3N1Cc1ccc(C)o1` (stereo not shown) [CBK284412], 102.917%.
For the compound `CCS(=O)(=O)c1ccc(O)c(NS(=O)(=O)c2cc(C(=O)O)ccc2Cl)c1` [CBK297531], the “% of control remaining” value was 129.574%.
For the compound `COCCn1c(=O)[nH]c2ncc(-c3ccc4c(c3)OCO4)nc21` [CBK064164], the “% of control remaining” value is 99.5322%.
As for `CN(CCO)S(=O)(=O)c1ccccc1[N+](=O)[O-]` [CBK261457], the figure is 83.8826%; as for `CC(Sc1nc2cc(Cl)ccc2c(=O)n1CC1CCCO1)C(N)=O` (stereo not shown) [CBK305935], 92.7425%.
As for `CCOc1ccc(NC(=O)C(C)O)c(NC(=O)c2ccccc2Cl)c1` (stereo not shown) [CBK269678], the figure is 103.545%; as for `CC1CN(C2CCN(S(=O)(=O)c3cccs3)CC2)C(=O)O1` (stereo not shown) [CBK044072], 93.3954%.
With `COc1cc2nnnn2c(-c2ccccc2)n1` [CBK026189], the “% of control remaining” value turned out to be 141.446%.
As for `CC(c1ccncn1)N(C)C(=O)NCc1cccc(CN(C)C)c1` (stereo not shown) [CBK307667], the figure is 119.989%; as for `FC(F)(F)c1cccc(-c2nccnc2NCCCN2CCOCC2)c1` [CBK037288], 166.7%.
As for `CNS(=O)(=O)c1cc(C(=O)NCc2ccccc2)ccc1OC` [CBK270277], the figure is 109.066%; as for `O=S(=O)(c1ccc(-c2ccccc2)cc1)N1CCCN(Cc2cccnc2N2CCOCC2)CC1` [CBK063127], 82.8625%; as for `CSc1nnc(-c2ccco2)n1-c1cccc(Cl)c1C` [CBK067723], 76.1087%.
As for `O=C(O)Cc1ccc(NC(=S)Nc2cccc(Cl)c2Cl)cc1` [CBK267064], the “% of control remaining” value is reported as 129.55%.
As to `CC(CN(C)C(=O)c1cn[nH]c1C1CCNC1)Oc1ccc(Cl)c(Cl)c1` (stereo not shown) [CBK304786], the “% of control remaining” value worked out at 118.774%.
Regarding `CC(C)n1c(=O)n(CC(=O)NCc2cccs2)c2cccnc21` [CBK283699], the “% of control remaining” value is given as 139.074%.
As for `COc1cc(C(=O)N2CCC3(CC2)CC(=O)c2cc(-c4cccc(C)c4)ccc2O3)cc(OC)c1C` [CBK170341], the “% of control remaining” value turned out to be 106.387%.
Regarding `Cc1[nH]c2ccc(Cl)cc2c1CC(=O)N(C)CCN(C)C` [CBK282700], the “% of control remaining” value turned out to be 127.807%.
